These results are taken from paper PMC7819943, “Rice protein-binding microarrays: a tool to detect cis-acting elements near promoter regions in rice”.

Sequences of proteins named here, by UniProt entry; tags and fusion partners are left off.
UniProt Q0JBA9, entry or part of it: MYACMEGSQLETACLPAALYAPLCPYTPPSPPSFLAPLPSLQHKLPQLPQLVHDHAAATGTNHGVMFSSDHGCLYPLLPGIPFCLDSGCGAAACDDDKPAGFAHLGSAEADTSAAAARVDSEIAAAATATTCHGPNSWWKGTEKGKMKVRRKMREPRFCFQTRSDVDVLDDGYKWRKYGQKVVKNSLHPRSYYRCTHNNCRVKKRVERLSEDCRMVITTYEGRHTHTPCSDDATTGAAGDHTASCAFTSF

The other results are listed elsewhere or left out.

The test has as its target OsWRKY34 (Oryza sativa, UniProt Q0JBA9 1-250). As to the kind of experiment: protein-binding microarray (RPBM); PBS, 2% BSA, 51.3 ng/ul salmon testes DNA, 50 uM zinc acetate, 200 nM TF, 25 C, 1 h; high values mean tight binding. Conditions: protein: recombinant; tags: N-terminal polyhistidine and DsRed monomer fusion (pET32a); label: CyDye5-dUTP incorporated in the synthesized complementary strand; 3' TTTTT single-stranded linker to array surface; dsDNA, one strand shown. An outline of the steps:
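An Axon 4000B scanner gave the binding signal as per-feature fluorescence intensity in arbitrary units. This followed washing of a custom Agilent array that had been incubated for 1 h at 25 °C with 200 nM protein in PBS, 2% BSA, salmon testes DNA and 50 µM zinc acetate. The proteins were transcription factors fused at the N-terminus to polyhistidine and DsRed, expressed in E. coli BL21-CodonPlus and purified on Ni–NTA.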
As for “TGTTGTGGGATTCCCCTTTCCTACGAACTCTCCCGTCGTTCGGAGTCACCTAGTGCAG”, the binding signal was 9620 fluorescence intensity (a.u.).
As for “GCCGCCGGCTCACCCGCCACGCGCAACCGCCCGCCGCCGCCGGAGTCACCTAGTGCAG”, the binding signal was 10400 fluorescence intensity (a.u.).
The figure for “CCAAATCTGGAGCTGGACCATATGTATCATTACCCAAACACGGAGTCACCTAGTGCAG” is 8340 fluorescence intensity (a.u.).
Then “ATTTCCAACCATTTCCTACCGTTTTCGTCCCTGGCAAACGCGGAGTCACCTAGTGCAG”, with 8470 fluorescence intensity (a.u.); and “TCACGGCCTCAATGGCGTCCTGCCATGCTTTGTTCCTGCACGGAGTCACCTAGTGCAG”, with 10800 fluorescence intensity (a.u.).
In the case of “CCGTGTAGATTTTAGCTTAATGTGTTCTTGGGTTGCCGTCCGGAGTCACCTAGTGCAG”, the binding signal was 8630 fluorescence intensity (a.u.).
Then “CACCTCGCGCCGCGCCCCATCCTTATCGTCATGACACGCCCGGAGTCACCTAGTGCAG”, with 8810 fluorescence intensity (a.u.); and “TAGCACATATACCATCACATCATTTTTCCTTTGCAACACTCGGAGTCACCTAGTGCAG”, with 8800 fluorescence intensity (a.u.).
The figure for “AATTATAACATTTTCTTCACCTAAATTTTTTCATCCCCTTCGGAGTCACCTAGTGCAG” is 8200 fluorescence intensity (a.u.).
Then “CTCATATGCTCATATCTATTGCAACAATCTAAGATATTTTCGGAGTCACCTAGTGCAG”, with 10600 fluorescence intensity (a.u.).
Regarding “ATACTTATTTGCTCGCATATTTGGCTTCTTTCTGTTTAGACGGAGTCACCTAGTGCAG”, the binding signal was 11100 fluorescence intensity (a.u.).
Then “CATAAGAGAGGAGGAGGGAGAGGTAGGGTCGTGGGGAAGGCGGAGTCACCTAGTGCAG”, with 8260 fluorescence intensity (a.u.).
Then “TTTTTCCTCGTCCCAAAAGCTCTTTAGGTCCTGTTTCTTTCGGAGTCACCTAGTGCAG”, with 13200 fluorescence intensity (a.u.).
Then “TGTATTCTCACATCTCCAGCTCTGTCTCCACATGATACCACGGAGTCACCTAGTGCAG”, with 10500 fluorescence intensity (a.u.); and “GAAACACCCGTCCGATTCACATCCAACGATCCGCAACCCACGGAGTCACCTAGTGCAG”, with 10300 fluorescence intensity (a.u.); and “TTATGTACCGGGTTGGAATATATTACACCTTCTTCATTTTCGGAGTCACCTAGTGCAG”, with 8930 fluorescence intensity (a.u.).
For “TTGGCCAGCAGCACAGGGATCGAGCGAGTTATACCTATTCCGGAGTCACCTAGTGCAG”, the binding signal was 9140 fluorescence intensity (a.u.).
The figure for “GATTCTACGCGACTCATCGTCTTCCTCTTCCCTCGAGCAGCGGAGTCACCTAGTGCAG” is 8380 fluorescence intensity (a.u.); for “AATCGCATATAGTTTAGGGGCTAAACTCGACTTTATTTTCCGGAGTCACCTAGTGCAG” it is 10000 fluorescence intensity (a.u.); for “CTCTAATATATTGGGCAATACTCTTGCCGCTTTCACCTTACGGAGTCACCTAGTGCAG” it is 8690 fluorescence intensity (a.u.).
Then “TTATGGCTGTGTTTAGTTTCTGAAATTGAGGAGAAGTTCACGGAGTCACCTAGTGCAG”, with 9300 fluorescence intensity (a.u.).
The figure for “CATGAATTACTGGCATCTTGTAACGGATCCCCTCGTCAAACGGAGTCACCTAGTGCAG” is 9980 fluorescence intensity (a.u.).
As for “GCCGCGCCGACCATCCCACCTTGTTTGGTTGTAATTTCTTCGGAGTCACCTAGTGCAG”, the binding signal was 9000 fluorescence intensity (a.u.).
In the case of “CTCCGTACATCTTTCATTATTTTTATCCTTTTATTAAATGCGGAGTCACCTAGTGCAG”, the binding signal was 9250 fluorescence intensity (a.u.).
On to “CGATTTTGCGGTTTTTTGGCTGGCGTGTTCGCTTCGCACCCGGAGTCACCTAGTGCAG”, for which the binding signal is 10900 fluorescence intensity (a.u.).
For “ACTGAAGGCGGTTTTCTCACACTTCACCTACCTCGTTGACCGGAGTCACCTAGTGCAG”, the binding signal was 15800 fluorescence intensity (a.u.).
The figure for “CCGTCTCGGTCTCGTACTCTCGTGCACCGCCCCGCCCGGCCGGAGTCACCTAGTGCAG” is 10800 fluorescence intensity (a.u.); for “ACACTAATCACTACTTGCCACATGCAGTAACACTCGCCTACGGAGTCACCTAGTGCAG” it is 8760 fluorescence intensity (a.u.).
On to “AGTCACTACTCTTCATTGAATTAATCTGGGGCATAATTTCCGGAGTCACCTAGTGCAG”, for which the binding signal is 9910 fluorescence intensity (a.u.).
Regarding “TAAATTATTGCAATGCTCACTTTCTCCATGGAATCAACTGCGGAGTCACCTAGTGCAG”, the binding signal was 8560 fluorescence intensity (a.u.).
Turning to “AGCCATTGCCCTCACCGTCTATGCCATTGTGGCATGGTCACGGAGTCACCTAGTGCAG”, the binding signal is 8630 fluorescence intensity (a.u.).
Turning to “CATTCTAGTGATTATTGCGACCGTTACTGGCTCTTTCATTCGGAGTCACCTAGTGCAG”, the binding signal was 8060 fluorescence intensity (a.u.).
In the case of “ATATGTAGCCCGTAGCTCTTATCTCTCATATTTTATTTTACGGAGTCACCTAGTGCAG”, the binding signal was 9940 fluorescence intensity (a.u.).
The figure for “TACCACTCTACTAGACTCCGTTCGCTGACACGCCCCGTCCCGGAGTCACCTAGTGCAG” is 11100 fluorescence intensity (a.u.); for “TCATAGTTGTCCAAAACACGATTTTTCTTCCTACGTACGTCGGAGTCACCTAGTGCAG” it is 8130 fluorescence intensity (a.u.).
In the case of “ATTACTACTGTAGTACCACTAGTAGTTTTTTATTACTGCTCGGAGTCACCTAGTGCAG”, the binding signal was 8590 fluorescence intensity (a.u.).
The figure for “TTGTTTTGCCTTTGCTCCTGTTTTACCAATAGCACACTATCGGAGTCACCTAGTGCAG” is 11600 fluorescence intensity (a.u.); for “GCCGTACGTGTTCCGCCGGCCTCTTCCTTTCCTTGCTTCACGGAGTCACCTAGTGCAG” it is 12400 fluorescence intensity (a.u.); for “GGCCCTTATATTTTACTTTGACACCCGCAGACTTGCGAGCCGGAGTCACCTAGTGCAG” it is 8730 fluorescence intensity (a.u.).
The figure for “TTATTGTTGTGCTTGTATCTGCTACCTATTTTTACATTCACGGAGTCACCTAGTGCAG” is 9250 fluorescence intensity (a.u.); for “CGCCCACCACCATTGTTCTGTTGCTGTTCCGCTGCGCTAGCGGAGTCACCTAGTGCAG” it is 8970 fluorescence intensity (a.u.).
Then “GTGTGTGTAATGTCTATGTTTGTATTATGATTCAAAAAAACGGAGTCACCTAGTGCAG”, with 10600 fluorescence intensity (a.u.).
